From paper doi:10.1101/2020.03.02.973859
Results are given in words; binding and its absence hold for the method and conditions named. In cells and extracts the contact can be indirect. A yes stands for co-enrichment or nearness to the bait. Other partners may have been found.

Target: T1, K+/Cl- co-transporter KCC2 (mouse (endogenous in mouse forebrain)) (UniProt Q91V14)
T1 sequence: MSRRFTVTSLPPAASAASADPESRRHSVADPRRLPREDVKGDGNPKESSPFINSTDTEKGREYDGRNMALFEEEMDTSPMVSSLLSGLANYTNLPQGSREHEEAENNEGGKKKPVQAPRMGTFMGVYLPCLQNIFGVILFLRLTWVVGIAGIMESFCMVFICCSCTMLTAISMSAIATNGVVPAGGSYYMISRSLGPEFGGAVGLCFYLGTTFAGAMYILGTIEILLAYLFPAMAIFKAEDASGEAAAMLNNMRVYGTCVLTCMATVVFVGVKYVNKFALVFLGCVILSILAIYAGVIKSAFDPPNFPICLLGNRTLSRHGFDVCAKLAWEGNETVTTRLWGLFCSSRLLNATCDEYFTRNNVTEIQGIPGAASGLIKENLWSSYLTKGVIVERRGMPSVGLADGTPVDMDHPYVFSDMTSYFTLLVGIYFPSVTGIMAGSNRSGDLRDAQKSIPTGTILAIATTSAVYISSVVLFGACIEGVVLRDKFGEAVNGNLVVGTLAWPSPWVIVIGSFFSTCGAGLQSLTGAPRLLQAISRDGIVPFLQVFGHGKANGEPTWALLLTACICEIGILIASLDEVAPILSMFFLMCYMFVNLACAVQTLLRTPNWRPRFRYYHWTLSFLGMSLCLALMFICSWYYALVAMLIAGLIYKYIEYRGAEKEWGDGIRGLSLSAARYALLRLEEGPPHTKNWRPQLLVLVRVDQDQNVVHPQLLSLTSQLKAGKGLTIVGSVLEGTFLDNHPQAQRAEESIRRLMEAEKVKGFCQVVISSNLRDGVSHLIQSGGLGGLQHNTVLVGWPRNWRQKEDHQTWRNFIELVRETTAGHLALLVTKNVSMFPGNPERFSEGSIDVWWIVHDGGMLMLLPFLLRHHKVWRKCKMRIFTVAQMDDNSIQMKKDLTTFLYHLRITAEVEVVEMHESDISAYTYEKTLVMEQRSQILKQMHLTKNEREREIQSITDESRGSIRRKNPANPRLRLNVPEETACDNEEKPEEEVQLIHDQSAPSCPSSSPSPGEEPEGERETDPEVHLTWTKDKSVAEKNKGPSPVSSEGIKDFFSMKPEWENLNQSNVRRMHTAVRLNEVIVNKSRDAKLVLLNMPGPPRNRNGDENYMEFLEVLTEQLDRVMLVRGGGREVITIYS
Test: affinity purification with mass spectrometry

Row | Substance | binding
1 | ATP1A2 (from UniProt Q6PIE5 1-1020) | binds
2 | SCN2A (from UniProt B1AWN6 1-2006) | binds
